Results reported in article PMC11775527.
No constants are given. Whether binding was seen depends on the method and setting. Binding seen in cells or lysates may run through a third protein. Some results given as binding are weak or reduced against the parent protein; the word gives no strength.

By UniProt entry, the sequences of proteins in these tests, tags left out. Residues count along the entry.
UniProt P11021, residues 19-654: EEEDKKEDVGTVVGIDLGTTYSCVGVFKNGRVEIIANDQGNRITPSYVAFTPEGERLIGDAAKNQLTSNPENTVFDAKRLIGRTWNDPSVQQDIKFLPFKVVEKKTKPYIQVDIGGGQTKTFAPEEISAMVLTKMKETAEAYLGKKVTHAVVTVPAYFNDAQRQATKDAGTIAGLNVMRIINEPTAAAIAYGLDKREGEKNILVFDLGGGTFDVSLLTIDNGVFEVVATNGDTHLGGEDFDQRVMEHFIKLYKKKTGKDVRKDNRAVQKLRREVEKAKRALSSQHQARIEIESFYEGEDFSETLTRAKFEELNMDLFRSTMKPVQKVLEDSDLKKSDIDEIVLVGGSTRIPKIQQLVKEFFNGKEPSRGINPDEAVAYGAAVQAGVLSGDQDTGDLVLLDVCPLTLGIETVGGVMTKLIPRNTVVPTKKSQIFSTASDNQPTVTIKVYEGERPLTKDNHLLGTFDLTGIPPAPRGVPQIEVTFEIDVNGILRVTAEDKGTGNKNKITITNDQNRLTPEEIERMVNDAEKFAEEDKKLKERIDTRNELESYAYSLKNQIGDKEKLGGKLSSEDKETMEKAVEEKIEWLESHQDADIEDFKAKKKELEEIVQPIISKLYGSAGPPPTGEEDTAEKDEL

Target: GRP78 (78-kDa glucose-regulated protein) (human (endogenous in human ESCC cell lines)) (UniProt P11021)
Experiment: co-IP; IP assays with western blot in ESCC cells (KYSE-30 with or without lnc191 knockdown in Figure 7B); which protein was precipitated is not told

For “EGFR (from UniProt P00533 25-1210) (receptor)”, the binding was “binds”.
